Source: PubChem BioAssay AID1508597 (Cure First, 2020)
Shown is an unselected part of the about 2,100 reagents, in one setting of the screen. 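Calls flag viability under 80% in either arm, not effects specific to rucaparib; the reference for percent is not stated.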 The record does not give: the 100% reference.

Test: 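Survival screen with siRNA in ovarian cancer cells derived from patients, with or without rucaparib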 (primary screen)
Cell system: human ovarian carcinoma lines grown from tumours: OCI-P5x (papillary serous) and OCI-C5x (clear cell)
Reagents: siRNA pool against human genes, 1.25 pmol siRNA per well
Time to read-out: 72 h or 96 h, depending on the cell culture
Challenge: rucaparib 20 µM (about IC30) or vehicle, present until read-out
Rucaparib or vehicle: Rucaparib
Cell line: OCI-P5x (serous)
Measured: 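Luminescent ATP-based viability assay read 72 or 96 h after transfection, depending on culture, given as normalised percent viability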
Scale: viability, normalised: higher = more viable cells remaining
Call rule: 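a well counts as a hit if its normalised viability is under 80 percent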
Meaning of the calls: active = viability under 80%; inactive = viability 80% or more

CBX7, technical replicate 1 | viability, normalised (%) = 61.2; activity call = active
CBX7, technical replicate 2 | viability, normalised (%) = 57.9; activity call = active
CBX7, technical replicate 3 | viability, normalised (%) = 48.1; activity call = active
CRKL, technical replicate 1 | viability, normalised (%) = 69.6; activity call = active
CRKL, technical replicate 2 | viability, normalised (%) = 81.7; activity call = inactive
CRKL, technical replicate 3 | viability, normalised (%) = 49.6; activity call = active
FBXO10, technical replicate 1 | viability, normalised (%) = 56.8; activity call = active
FBXO10, technical replicate 2 | viability, normalised (%) = 57.1; activity call = active
FBXO10, technical replicate 3 | viability, normalised (%) = 64.4; activity call = active
SMARCE1, technical replicate 1 | viability, normalised (%) = 55.2; activity call = active
SMARCE1, technical replicate 2 | viability, normalised (%) = 62.1; activity call = active
SMARCE1, technical replicate 3 | viability, normalised (%) = 67; activity call = active
STK25, technical replicate 1 | viability, normalised (%) = 71.3; activity call = active
STK25, technical replicate 2 | viability, normalised (%) = 87.4; activity call = inactive
STK25, technical replicate 3 | viability, normalised (%) = 78.8; activity call = active
TTBK2, technical replicate 1 | viability, normalised (%) = 87.1; activity call = inactive
TTBK2, technical replicate 2 | viability, normalised (%) = 85.9; activity call = inactive
TTBK2, technical replicate 3 | viability, normalised (%) = 95.4; activity call = inactive
ENY2, technical replicate 1 | viability, normalised (%) = 78.2; activity call = active
ENY2, technical replicate 2 | viability, normalised (%) = 73.6; activity call = active
ENY2, technical replicate 3 | viability, normalised (%) = 79.8; activity call = active
NLK, technical replicate 1 | viability, normalised (%) = 76.1; activity call = active
NLK, technical replicate 2 | viability, normalised (%) = 84.2; activity call = inactive
NLK, technical replicate 3 | viability, normalised (%) = 88.2; activity call = inactive
SPTA1, technical replicate 1 | viability, normalised (%) = 61.8; activity call = active
SPTA1, technical replicate 2 | viability, normalised (%) = 65.1; activity call = active
SPTA1, technical replicate 3 | viability, normalised (%) = 63; activity call = active
LHCGR, technical replicate 1 | viability, normalised (%) = 58; activity call = active
LHCGR, technical replicate 2 | viability, normalised (%) = 54.9; activity call = active
LHCGR, technical replicate 3 | viability, normalised (%) = 60.7; activity call = active
MAP3K9, technical replicate 1 | viability, normalised (%) = 70.7; activity call = active
MAP3K9, technical replicate 2 | viability, normalised (%) = 71.5; activity call = active
MAP3K9, technical replicate 3 | viability, normalised (%) = 75.7; activity call = active

Looked up above:
Value for CRKL, technical replicate 2 under “viability, normalised (%)”: 81.7
Under “activity call”, MAP3K9, technical replicate 1 is entered as active
For “viability, normalised (%)”, MAP3K9, technical replicate 2 shows 71.5
TTBK2, technical replicate 1, viability, normalised (%): 87.1
Under “viability, normalised (%)”, SPTA1, technical replicate 2 shows 65.1
